In US11882846B2, “Use of kefir peptide for improving or treating depressive behaviors and related diseases” (National Chung Hsing University, priority 2021, dated 2024):
Where a name gives a salt, the structure may show the parent alone. Some of these results come from one statement about several compounds together.

System: BDNF (brain-derived neurotrophic factor)
Experiment: BDNF protein expression in hippocampal tissues, western blot
Assay type: in vivo, mice
Details: oral treatment for 8 days; compared with first group (distilled water)

For `O=c1n(CCCN2CCN(c3cccc(Cl)c3)CC2)nc2ccccn12` [trazodone hydrochloride], the “increase of expression level of BDNF protein in hippocampal tissues” value was “more than 2 times”.
